No constants are given. Whether binding was seen depends on the method and setting. Binding can be weak; no strength is given.
biological target: Macaca CCR8 (Macaca); test: flow cytometry, Macaca CCR8 stable cell line and transiently transfected HEK293 cells

Row | binding | Binder
1 | binds | VHH-56 (VHH, Monovalent VHH purified from E. coli periplasm by IMAC; PelB signal peptide is removed on export; not shown: C-terminal FLAG3 and His6 tags) VHH: EVQLVESGGGLVQPGGSLRLSCAASRSIYNVMAMGWYRQAPGKERELVAVVWSSGNTNYADSVKGRFTVSRDNAKNTVYLQMNSLRPEDTAVYYCYSKSLIGTSRYEIWGQGTLVTVSS
2 | binds | VHH-62 (VHH, not shown: small tags and cut ends) VHH: EVQLVESGGGLVQPGGSLRLSCAASGFSFSSFALSWYRQAPGKERELVARITTTGATNYADSVKGRFTISRDNAKNMGYLQMNSLRPEDTAVYYCNARARLSSVFDYWGQGTLVTVSS
3 | binds | VHH-74 (VHH, Monovalent VHH purified from E. coli periplasm by IMAC; not shown: C-terminal FLAG3 and His6 tags) VHH: EVQLVESGGGLVQPGGSLRLSCAASGSTFSIKSIGWYRQAPGKQRELVADITRGAGINYADSVKGRFTISRDNTKNTMYLQMNSLRPEDTAVYYCNVKTIKRTGGIMTGSKIEYDYWGQGTLVTVSS
4 | binds | VHH-65 (VHH, Monovalent VHH purified from E. coli periplasm by IMAC; not shown: C-terminal FLAG3 and His6 tags) VHH: EVQLVESGGGLVQPGGSLRLSCAASGRAFSSYNMGWFRQAPGKERDFVATISSSGTNYANSVKGRFTISRDNAKNTVYLQMNSLRPEDTAVYYCNAKTVTRTGGVITGSRIEYDYWGQGTLVTVSS

From patent US20240076391A1 (ONCURIOUS, published 2024)
